These are yes or no findings as the source states them, for the method shown. Binding calls can cover weak binding; strength is not graded here.
Target: full length LOTR-1 (yeast two-hybrid) (C. elegans) (UniProt A5Z2T6)
Test: two-hybrid; GAL4-AD and GAL4-BD fusions (pGAD-C1, pGBD-C1) in yeast strain PJ69-4a; SC-Leu-Trp-Ade plates or SC-Leu-Trp-His plates with varying 3-amino-1,2,4-triazole

By UniProt entry, the sequences of proteins in these tests, tags left out. Where a name states a change or a piece, a line headed by the entry shows the natural chain unless it says otherwise.
UniProt A5Z2T6: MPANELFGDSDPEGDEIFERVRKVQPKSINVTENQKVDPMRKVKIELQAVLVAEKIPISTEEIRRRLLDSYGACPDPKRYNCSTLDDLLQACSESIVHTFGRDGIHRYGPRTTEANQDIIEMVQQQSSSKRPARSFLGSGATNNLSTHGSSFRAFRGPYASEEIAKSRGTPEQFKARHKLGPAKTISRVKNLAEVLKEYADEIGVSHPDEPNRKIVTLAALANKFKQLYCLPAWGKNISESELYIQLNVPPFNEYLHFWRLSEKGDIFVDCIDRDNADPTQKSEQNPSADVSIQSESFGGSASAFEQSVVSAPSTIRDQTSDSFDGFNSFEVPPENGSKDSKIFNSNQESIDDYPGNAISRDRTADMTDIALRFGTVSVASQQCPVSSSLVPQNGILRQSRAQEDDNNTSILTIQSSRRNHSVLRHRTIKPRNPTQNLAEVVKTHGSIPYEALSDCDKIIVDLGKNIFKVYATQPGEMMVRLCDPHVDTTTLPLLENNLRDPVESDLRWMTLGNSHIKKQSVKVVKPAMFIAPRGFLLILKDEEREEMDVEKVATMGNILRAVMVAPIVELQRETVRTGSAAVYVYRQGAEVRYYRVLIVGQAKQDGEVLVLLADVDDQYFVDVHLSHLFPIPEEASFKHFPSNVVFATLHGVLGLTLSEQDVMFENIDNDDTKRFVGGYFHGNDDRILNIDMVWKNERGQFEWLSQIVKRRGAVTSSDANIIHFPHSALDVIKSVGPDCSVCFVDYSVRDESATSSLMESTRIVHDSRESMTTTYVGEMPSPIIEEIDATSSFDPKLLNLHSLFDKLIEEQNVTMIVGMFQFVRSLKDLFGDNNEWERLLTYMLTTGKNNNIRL
UniProt Q18509: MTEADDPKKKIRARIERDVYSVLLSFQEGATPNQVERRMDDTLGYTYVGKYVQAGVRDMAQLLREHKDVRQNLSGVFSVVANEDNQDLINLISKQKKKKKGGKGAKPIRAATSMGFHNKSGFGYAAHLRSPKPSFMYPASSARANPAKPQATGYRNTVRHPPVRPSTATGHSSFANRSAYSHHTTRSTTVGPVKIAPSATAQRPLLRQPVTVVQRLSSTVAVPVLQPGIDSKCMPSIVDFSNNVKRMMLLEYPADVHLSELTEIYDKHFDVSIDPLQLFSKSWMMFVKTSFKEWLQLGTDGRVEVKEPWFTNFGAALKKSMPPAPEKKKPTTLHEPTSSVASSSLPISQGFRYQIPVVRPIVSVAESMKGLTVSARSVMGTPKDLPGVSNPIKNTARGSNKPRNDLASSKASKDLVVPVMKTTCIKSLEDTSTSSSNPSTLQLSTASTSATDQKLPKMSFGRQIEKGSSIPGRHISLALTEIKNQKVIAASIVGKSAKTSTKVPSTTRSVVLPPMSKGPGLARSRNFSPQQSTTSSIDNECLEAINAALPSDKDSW
UniProt P90898: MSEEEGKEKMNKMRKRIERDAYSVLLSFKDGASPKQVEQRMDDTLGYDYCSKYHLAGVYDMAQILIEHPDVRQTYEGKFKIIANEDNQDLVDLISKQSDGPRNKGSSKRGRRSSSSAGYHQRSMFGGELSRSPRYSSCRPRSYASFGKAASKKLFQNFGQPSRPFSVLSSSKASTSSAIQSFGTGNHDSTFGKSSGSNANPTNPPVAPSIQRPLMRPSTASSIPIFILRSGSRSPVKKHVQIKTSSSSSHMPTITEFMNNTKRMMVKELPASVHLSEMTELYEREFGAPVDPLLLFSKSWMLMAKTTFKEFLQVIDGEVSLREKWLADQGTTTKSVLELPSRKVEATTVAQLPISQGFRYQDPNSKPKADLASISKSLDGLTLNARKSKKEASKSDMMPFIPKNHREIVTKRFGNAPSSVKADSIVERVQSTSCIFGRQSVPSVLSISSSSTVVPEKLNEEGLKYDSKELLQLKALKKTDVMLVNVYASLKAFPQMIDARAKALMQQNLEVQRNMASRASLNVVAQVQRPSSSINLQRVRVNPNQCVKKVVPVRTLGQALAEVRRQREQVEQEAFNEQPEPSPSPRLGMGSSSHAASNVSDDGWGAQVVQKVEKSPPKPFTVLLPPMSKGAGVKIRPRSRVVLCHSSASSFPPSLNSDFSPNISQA

binding | Substance
binds | MIP-1 (yeast two-hybrid) (from UniProt Q18509)
binds | MIP-2 (yeast two-hybrid) (from UniProt P90898)
